# Measured values taken from publication PMC5323130 (Oncotarget, 2016).
# Some peptides are written in HELM: one residue between dots, names in brackets for other building blocks, links after the first $.
# Test: general procedure: Fmoc solid-phase peptide synthesis
# Conditions: whole synthesis, HPLC
row,Substance,purity (crude or final not stated)
1,PEPTIDE1{L.D.Y.G.D.K.R.E.G.Q.M.A.E}$$$$V2.0,98.81%
2,PEPTIDE1{G.N.A.D.Y.N.S.Q.R.A.Q.L.Y.N.Q}$$$$V2.0,97.56%
3,PEPTIDE1{G.I.D.Y.E.E.R.W.K}$$$$V2.0,95.14%
4,PEPTIDE1{F.N.W.D.Y.S.L.E.E.L.R.E.K.A.K.Y.K}$$$$V2.0,95.80%
5,PEPTIDE1{G.N.W.A.Y.N.S.Q.R.A.Q.L.Y.N.Q}$$$$V2.0,95.18%
6,PEPTIDE1{T.E.K.D.Y.R.H.G.N.I.R.M.K.L.A.Y.D.L}$$$$V2.0,96.71%
7,PEPTIDE1{W.D.Y.D}$$$$V2.0,98.40%
8,PEPTIDE1{G.N.W.D.A.N.S.Q.R.A.Q.L.Y.N.Q}$$$$V2.0,96.76%
9,PEPTIDE1{G.N.W.D.Y.N.S.Q.A.A.Q.L.Y.N.Q}$$$$V2.0,96.65%
10,PEPTIDE1{L.D.Y.D.G.R.L.S.Q}$$$$V2.0,96.46%
11,PEPTIDE1{G.N.W.D.Y.N.S.Q.R.A.Q.L.Y.N.Q}$$$$V2.0,98.24%
12,PEPTIDE1{L.D.Y.V.N.R.R.K.M.Y.Q}$$$$V2.0,96.08%
13,PEPTIDE1{F.N.W.D.Y.S.W.K.S.E.R.L.K.E.A.Y.D.L}$$$$V2.0,96.66%
14,PEPTIDE1{A.D.Y.K}$$$$V2.0,95.17%
